# Test results published in paper PMC10200693.
# B1: Synaptogyrin-2 (protein, UniProt O43760 1-224)
# chain: MESGAYGAAKAGGSFDLRRFLTQPQVVARAVCLVFALIVFSCIYGEGYSNAHESKQMYCVFNRNEDACRYGSAIGVLAFLASAFFLVVDAYFPQISNATDRKYLVIGDLLFSALWTFLWFVGFCFLTNQWAVTNPKDVLVGADSVRAAITFSFFSIFSWGVLASLAYQRYKAGVDDFIQNYVDPTPDPNTAYASYPGASVDNYQQPPFTQNAETTEGYQPPPVY
# B2: calprotectin subunit s100a8 (protein, UniProt P05109 1-93)
# chain: MLTELEKALNSIIDVYHKYSLIKGNFHAVYRDDLKKLLETECPQYIRKKGADVWFKELDINTDGAVNFQEFLILVIKMGVAAHKKSHEESHKE
# B3: calprotectin subunit s100a9 (protein, UniProt P06702 1-114)
# chain: MTCKMSQLERNIETIINTFHQYSVKLGHPDTLNQGEFKELVRKDLQNFLKKENKNEKVIEHIMEDLDTNADKQLSFEEFIMLMARLTWASHEKMHEGDEGPGHHHKPGLGEGTP
# Target: increased sodium tolerance 1 (IST1) (human (endogenous in moDCs)) (UniProt P53990)
# Assay: affinity purification with mass spectrometry; endogenous IST1 immunoprecipitated from lysates of moDCs cultured overnight with or without 10% FBS (rabbit anti-IST1, protein A/G magnetic beads, 4°C; lysis buffer 200 mM NaCl, 75 mM Tris-HCl, 15 mM NaF, 7.5 mM EDTA, 7.5 mM EGTA, 0.15% Tween20); eluted with 0.2 M glycine pH 2-3; four donors; compared with beads only
row,Binder,binding
1,B1,binds
2,B2,binds
3,B3,binds

# Results are given in words; binding and its absence hold for the method and conditions named. Binding seen in cells or lysates may run through a third protein. These calls come from enrichment with a bait or labelling near it, and not all partners need be listed.
